Laboratory results: publication PMC6321638
These are yes or no findings as the source states them, for the method shown. Some results given as binding are weak or reduced against the parent protein; the word gives no strength. Sequences can lack the tags named with a protein.

T1: GST-ALG-2^W57A (mouse) (UniProt P12815)
T1 sequence: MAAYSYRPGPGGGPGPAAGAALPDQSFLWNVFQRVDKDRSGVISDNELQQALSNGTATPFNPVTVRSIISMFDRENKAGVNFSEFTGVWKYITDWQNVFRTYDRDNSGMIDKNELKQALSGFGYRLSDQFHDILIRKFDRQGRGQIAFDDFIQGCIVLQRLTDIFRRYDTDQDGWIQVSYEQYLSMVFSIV

T2: delta3-23ALG-2^W57A (mouse) (UniProt P12815)
T2 sequence: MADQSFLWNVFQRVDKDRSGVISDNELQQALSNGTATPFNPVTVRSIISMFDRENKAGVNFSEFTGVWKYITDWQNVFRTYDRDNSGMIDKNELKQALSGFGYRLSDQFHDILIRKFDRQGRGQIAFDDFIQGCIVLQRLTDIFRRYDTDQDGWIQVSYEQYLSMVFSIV


Assays:
[1] = molecular target: GST-ALG-2^WT (wild-type ALG-2 fused to GST-tag) (mouse) (UniProt P12815); assay: pull-down; GST-pulldown as a1 but with 1 mM EGTA instead of Ca2+; both purified
[2] = molecular target: T1, GST-ALG-2^W57A (mouse); assay: pull-down; GST-pulldown: purified His-SOUL (5 µM) and GST-ALG-2 (5 µM) with Glutathione Sepharose 4B in buffer B (100 mM Tris-HCl pH 7.5, 100 mM NaCl, 10% glycerol) with 20 µM CaCl2 (or various amounts of Ca2+), 30 min at 4 °C; SDS-PAGE, Coomassie; both purified
[3] = molecular target: T2, delta3-23ALG-2^W57A (mouse); assay: condition: 130 µM injected into 5 µM (conditions of Figure 3C); ITC; His-SOUL (130 or 260 µM) injected into delta3-23ALG-2 (5 or 10 µM); 25 °C, pH 7.5, buffer C (25 mM HEPES, 150 mM NaCl, 10% glycerol) with 15 µM CaCl2 and 0.25% Tween 20; one-set-of-sites model (sequential-binding-sites model also tried); both purified
[4] = molecular target: GST-ALG-2^WT (wild-type ALG-2 fused to GST-tag) (mouse) (UniProt P12815); assay: pull-down; GST-pulldown: purified His-SOUL (5 µM) and GST-ALG-2 (5 µM) with Glutathione Sepharose 4B in buffer B (100 mM Tris-HCl pH 7.5, 100 mM NaCl, 10% glycerol) with 20 µM CaCl2 (or various amounts of Ca2+), 30 min at 4 °C; SDS-PAGE, Coomassie; both purified
[5] = molecular target: delta3-23ALG-2^WT (mouse) (UniProt P12815); assay: condition: 130 µM injected into 5 µM (conditions of Figure 3C); ITC; His-SOUL (130 or 260 µM) injected into delta3-23ALG-2 (5 or 10 µM); 25 °C, pH 7.5, buffer C (25 mM HEPES, 150 mM NaCl, 10% glycerol) with 15 µM CaCl2 and 0.25% Tween 20; one-set-of-sites model (sequential-binding-sites model also tried); both purified

| binding [1] | binding [2] | binding [3] | binding [4] | binding [5] | Binder |
| --- | --- | --- | --- | --- | --- |
| no binding (condition: with 1 mM EGTA) | no binding (tested: 5 µM each) | no binding | – | – | His-SOUL^WT (wild-type SOUL fused to His-tag) (protein, UniProt Q9WU63 1-205) MAEEPEPDLGVAEGSEDQALEMPSWKAPEDIDPQPGSYEIRHYGPAKWVSTCVESLDWDSAIQTGFTKLNGYIQGKNEKEMKIKLTAPVTSYVEPGSSPFSESTITISLYIPSEQQPDPPRPSESDVFIEDRAEMTVFVRSFDGFSSGQKNQEQLLTLANILREEGKVFNEKVFYTAGYSSPFQLLDRNNEVWLIQKNEPSVENK |
| – | – | – | no binding (tested: 5 µM each) | no binding | His-SOUL^F100A (protein, UniProt Q9WU63 1-205) MAEEPEPDLGVAEGSEDQALEMPSWKAPEDIDPQPGSYEIRHYGPAKWVSTCVESLDWDSAIQTGFTKLNGYIQGKNEKEMKIKLTAPVTSYVEPGSSPASESTITISLYIPSEQQPDPPRPSESDVFIEDRAEMTVFVRSFDGFSSGQKNQEQLLTLANILREEGKVFNEKVFYTAGYSSPFQLLDRNNEVWLIQKNEPSVENK |
| – | – | – | binds weakly | – | His-SOUL102-205 (domain or fragment, UniProt Q9WU63 102-205) ESTITISLYIPSEQQPDPPRPSESDVFIEDRAEMTVFVRSFDGFSSGQKNQEQLLTLANILREEGKVFNEKVFYTAGYSSPFQLLDRNNEVWLIQKNEPSVENK |
